We go through 1 compound from patent US20230073214A1, “BIOACTIVE RELEASING MEMBRANE FOR ANALYTE SENSOR” (DexCom, Inc., priority 2021, published 2023).

The data set is described as follows: additional release experiments with dexamethasone salts in different bioactive releasing membrane combinations. Type of data set: physicochemical. As to conditions: incorporated in a biointerface polymer membrane.

In the case of `C[C@@H]1C[C@H]2[C@@H]3CCC4=CC(=O)C=C[C@]4(C)[C@@]3(F)[C@@H](O)C[C@]2(C)[C@@]1(O)C(=O)COP(=O)(O)O` [Dexamethasone phosphate], the “duration of sustained release” value is “about 2 days”.
